Assay results published in paper PMC9354775.
No constants are given. Whether binding was seen depends on the method and setting. For part of these data: Binding seen in cells or lysates may run through a third protein. Some results given as binding are weak or reduced against the parent protein; the word gives no strength. For part of these data: Tags and fused reporters may be left off the sequences shown. Blank lines part the entries; values can stand above or below the molecule they belong to.

Amino acid sequences for entries named in this document (tags omitted).
UniProt Q6WWW4: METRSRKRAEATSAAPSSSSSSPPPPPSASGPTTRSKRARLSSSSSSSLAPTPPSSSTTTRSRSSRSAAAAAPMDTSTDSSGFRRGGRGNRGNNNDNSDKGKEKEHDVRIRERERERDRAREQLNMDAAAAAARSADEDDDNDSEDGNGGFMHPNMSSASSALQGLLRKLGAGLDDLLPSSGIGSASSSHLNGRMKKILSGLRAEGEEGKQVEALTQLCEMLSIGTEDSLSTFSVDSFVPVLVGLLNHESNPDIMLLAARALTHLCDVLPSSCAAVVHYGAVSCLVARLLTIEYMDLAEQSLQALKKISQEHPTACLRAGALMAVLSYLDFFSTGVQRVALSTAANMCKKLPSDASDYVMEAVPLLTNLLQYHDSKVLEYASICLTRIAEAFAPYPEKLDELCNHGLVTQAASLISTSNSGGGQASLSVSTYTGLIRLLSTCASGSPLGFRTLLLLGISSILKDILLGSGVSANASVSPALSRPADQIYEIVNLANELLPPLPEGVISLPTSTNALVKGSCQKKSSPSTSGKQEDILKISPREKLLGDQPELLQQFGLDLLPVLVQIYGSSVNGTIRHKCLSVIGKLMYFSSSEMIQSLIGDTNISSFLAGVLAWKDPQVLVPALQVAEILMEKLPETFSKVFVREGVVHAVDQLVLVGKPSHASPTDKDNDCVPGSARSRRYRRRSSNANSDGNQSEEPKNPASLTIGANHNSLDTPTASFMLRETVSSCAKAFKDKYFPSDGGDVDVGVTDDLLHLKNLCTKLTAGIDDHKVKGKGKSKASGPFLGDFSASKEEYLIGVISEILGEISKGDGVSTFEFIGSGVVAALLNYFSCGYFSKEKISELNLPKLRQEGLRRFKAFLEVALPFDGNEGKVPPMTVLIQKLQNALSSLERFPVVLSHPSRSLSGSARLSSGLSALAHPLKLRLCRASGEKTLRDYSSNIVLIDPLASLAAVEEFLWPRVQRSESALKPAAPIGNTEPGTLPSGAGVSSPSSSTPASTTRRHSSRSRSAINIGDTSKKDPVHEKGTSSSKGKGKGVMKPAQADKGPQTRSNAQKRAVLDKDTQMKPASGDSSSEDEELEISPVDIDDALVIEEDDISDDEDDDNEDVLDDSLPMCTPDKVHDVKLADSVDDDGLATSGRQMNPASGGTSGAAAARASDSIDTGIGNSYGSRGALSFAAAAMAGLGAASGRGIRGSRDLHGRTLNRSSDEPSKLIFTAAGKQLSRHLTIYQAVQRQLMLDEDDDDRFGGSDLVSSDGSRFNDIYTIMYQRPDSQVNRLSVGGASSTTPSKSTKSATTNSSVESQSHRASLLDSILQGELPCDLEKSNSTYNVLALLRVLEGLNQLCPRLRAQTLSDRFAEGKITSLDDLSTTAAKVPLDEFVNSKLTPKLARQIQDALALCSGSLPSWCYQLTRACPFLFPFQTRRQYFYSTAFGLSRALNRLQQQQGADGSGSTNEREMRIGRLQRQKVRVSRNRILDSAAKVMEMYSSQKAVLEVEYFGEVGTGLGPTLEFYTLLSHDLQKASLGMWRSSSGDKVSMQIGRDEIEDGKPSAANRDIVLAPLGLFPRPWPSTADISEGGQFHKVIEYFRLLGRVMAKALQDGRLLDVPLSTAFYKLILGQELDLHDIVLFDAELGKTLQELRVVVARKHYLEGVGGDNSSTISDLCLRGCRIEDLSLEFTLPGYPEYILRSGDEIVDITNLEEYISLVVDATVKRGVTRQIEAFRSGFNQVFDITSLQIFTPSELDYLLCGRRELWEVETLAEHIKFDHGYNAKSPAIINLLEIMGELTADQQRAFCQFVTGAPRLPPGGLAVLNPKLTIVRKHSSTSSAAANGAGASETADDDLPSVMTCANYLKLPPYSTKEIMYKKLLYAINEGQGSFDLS
UniProt Q42525: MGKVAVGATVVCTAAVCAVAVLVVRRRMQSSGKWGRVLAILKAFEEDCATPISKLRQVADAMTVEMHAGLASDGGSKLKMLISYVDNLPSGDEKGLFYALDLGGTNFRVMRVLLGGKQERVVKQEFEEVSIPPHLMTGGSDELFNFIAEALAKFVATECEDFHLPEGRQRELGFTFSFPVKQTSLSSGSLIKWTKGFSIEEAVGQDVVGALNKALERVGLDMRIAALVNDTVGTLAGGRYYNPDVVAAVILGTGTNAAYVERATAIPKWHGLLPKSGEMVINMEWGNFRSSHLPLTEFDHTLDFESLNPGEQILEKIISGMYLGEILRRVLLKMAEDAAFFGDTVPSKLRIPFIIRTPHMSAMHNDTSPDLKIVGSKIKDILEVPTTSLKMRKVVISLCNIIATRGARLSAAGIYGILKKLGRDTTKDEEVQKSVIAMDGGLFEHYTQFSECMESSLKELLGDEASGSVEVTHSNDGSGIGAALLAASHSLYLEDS

Tests used:
UBP12-GFP (A. thaliana) = target: T1, UBP12-GFP (A. thaliana) (UniProt Q9FPT1); test: co-IP; anti-GFP immunoprecipitation from fifth to eighth rosette leaves of 6-wk-old oeUPL3-GFP or oeUBP12-GFP plants; blots with anti-HXK1, anti-BRM and anti-PPC2
T1 sequence: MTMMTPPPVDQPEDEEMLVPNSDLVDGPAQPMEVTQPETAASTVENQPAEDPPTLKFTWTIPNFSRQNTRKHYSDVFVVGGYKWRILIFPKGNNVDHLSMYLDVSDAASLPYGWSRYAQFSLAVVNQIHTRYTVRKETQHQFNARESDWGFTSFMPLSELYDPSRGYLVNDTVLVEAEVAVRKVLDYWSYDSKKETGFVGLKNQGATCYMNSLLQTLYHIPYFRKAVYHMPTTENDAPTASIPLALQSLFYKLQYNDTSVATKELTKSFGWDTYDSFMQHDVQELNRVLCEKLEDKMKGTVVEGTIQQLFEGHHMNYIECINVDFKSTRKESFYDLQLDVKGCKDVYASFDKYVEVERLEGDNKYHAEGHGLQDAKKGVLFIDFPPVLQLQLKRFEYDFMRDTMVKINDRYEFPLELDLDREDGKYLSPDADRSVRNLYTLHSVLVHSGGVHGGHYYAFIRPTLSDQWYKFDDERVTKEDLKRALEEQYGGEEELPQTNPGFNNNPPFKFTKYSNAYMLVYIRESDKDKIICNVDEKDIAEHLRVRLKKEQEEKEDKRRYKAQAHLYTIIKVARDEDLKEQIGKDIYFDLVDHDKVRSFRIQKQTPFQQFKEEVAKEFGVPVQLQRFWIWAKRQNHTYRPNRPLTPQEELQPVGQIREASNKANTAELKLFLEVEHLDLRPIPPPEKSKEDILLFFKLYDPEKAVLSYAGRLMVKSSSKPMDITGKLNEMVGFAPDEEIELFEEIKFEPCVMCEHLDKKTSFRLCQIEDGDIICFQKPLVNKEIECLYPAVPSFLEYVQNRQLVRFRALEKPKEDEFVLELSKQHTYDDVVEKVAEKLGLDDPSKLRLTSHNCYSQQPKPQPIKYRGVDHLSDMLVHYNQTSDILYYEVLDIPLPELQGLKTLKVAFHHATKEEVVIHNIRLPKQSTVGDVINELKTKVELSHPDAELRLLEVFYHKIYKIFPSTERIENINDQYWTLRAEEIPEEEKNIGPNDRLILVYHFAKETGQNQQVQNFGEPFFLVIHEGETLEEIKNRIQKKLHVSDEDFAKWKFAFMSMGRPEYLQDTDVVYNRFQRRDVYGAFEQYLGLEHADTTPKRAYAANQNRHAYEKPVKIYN

UPL3-GFP (A. thaliana) = UPL3-GFP (A. thaliana) (UniProt Q6WWW4); test: as above
BD-UBP12 (A. thaliana) = target: T2, BD-UBP12 (A. thaliana) (UniProt Q9FPT1); test: two-hybrid; GAL4-based two-hybrid system 3 (Clontech); baits in pGBKT7-BD, preys in pGADT7-AD; growth on SD/-LTH or SD/-ALTH
T2 sequence: T1 sequence

[1] = target: full-length UPL3 bait (A. thaliana) (UniProt Q6WWW4); test: as above

- binding (UBP12-GFP (A. thaliana)): no binding
- binding (UPL3-GFP (A. thaliana)): binds
Molecule: hexokinase 1 (HXK1) (from UniProt Q42525 1-496) (enzyme)

- binding (BD-UBP12 (A. thaliana)): binds weakly
- binding [1]: binds weakly
B1: PPC2 (two-hybrid prey) (enzyme, UniProt Q5GM68 1-963)
chain: MAARNLEKMASIDAQLRLLAPGKVSEDDKLIEYDALLLDRFLDILQDLHGEDVREFVQECYEVAADYDGNRNTEKLEELGNMLTSLDPGDSIVVTKSFSNMLSLANLAEEVQIAYRRRIKKLKKGDFADEASATTESDIEETLKRLLQLNKTPEEVFDALKNQTVDLVLTAHPTQSVRRSLLQKFGRIRDCLTQLYAKDITPDDKQELDEALQREIQAAFRTDEIRRTPPTPQDEMRAGMSYFHETIWKGVPKFLRRVDTALKNIGINERVPYNAPLIQFSSWMGGDRDGNPRVTPEVTRDVCLLARMMAANLYFSQIEDLMFEMSMWRCNEELRVRAERQRCAKRDAKHYIEFWKQIPANEPYRAILGDVRDKLYNTRERARQLLSSGVSDVPEDAVFTSVDQFLEPLELCYRSLCDCGDRPIADGSLLDFLRQVSTFGLALVKLDIRQESERHSDVLDAITTHLGIGSYKEWSEDKRQEWLLSELSGKRPLFGPDLPKTEEVADVLDTFKVISELPSDSFGAYIISMATAPSDVLAVELLQRECGITDPLRVVPLFEKLADLESAPAAVARLFSIEWYRNRINGKQEVMIGYSDSGKDAGRLSAAWQLYKTQEELVKVAKEYGVKLTMFHGRGGTVGRGGGPTHLAILSQPPDTIHGQLRVTVQGEVIEQSFGEEHLCFRTLQRFTAATLEHGMHPPVSPKPEWRVLMDEMAIIATEEYRSVVFKEPRFVEYFRLATPELEYGRMNIGSRPSKRKPSGGIESLRAIPWIFAWTQTRFHLPVWLGFGGAFKRVIQKDSKNLNMLKEMYNQWPFFRVTIDLVEMVFAKGDPGIAALYDRLLVSEELQPFGEQLRVNYQETRRLLLQVAGHKDILEGDPYLRQRLQLRDPYITTLNVCQAYTLKQIRDPSFHVKVRPHLSKDYMESSPAAELVKLNPKSEYAPGLEDTVILTMKGIAAGMQNTG

- binding (UBP12-GFP (A. thaliana)): binds
- binding (UPL3-GFP (A. thaliana)): binds
B2: phosphoenolpyruvate carboxylase 2 (PPC2) (enzyme, UniProt Q5GM68 1-963)
chain: B1 chain
